These results are taken from patent publication US20190233475A1 (Bicycle, published 2019).

Sequences of proteins named here, by UniProt entry; tags and fusion partners are left off. Residues count along the entry.
UniProt P14272, residues 391-638: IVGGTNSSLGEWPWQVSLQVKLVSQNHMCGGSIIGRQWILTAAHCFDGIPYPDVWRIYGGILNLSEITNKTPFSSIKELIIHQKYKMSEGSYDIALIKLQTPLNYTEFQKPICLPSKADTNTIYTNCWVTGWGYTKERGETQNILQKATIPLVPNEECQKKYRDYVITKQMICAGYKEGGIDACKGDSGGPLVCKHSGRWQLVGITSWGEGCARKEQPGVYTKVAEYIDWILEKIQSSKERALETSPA

No constants are given. Whether binding was seen depends on the method and setting. Some binding calls cover weakened binding; strength is not graded here.

In the assay the target is T1, rat plasma kallikrein (rat, UniProt P14272 391-638).
T1 construct: domain: catalytic domain; Expressed and purified in house; also called rat kallikrein; rPK
In words: enzyme inhibition assay.
ACNNFPFRCVYYPDICA (three Cys linked to the TBMB (tris(bromomethyl)benzene) scaffold) [06-261]: the binding entry was “binds”. The result for ACNTWNPWCPWDAPLCA (three Cys linked to the TBMB (tris(bromomethyl)benzene) scaffold) [06-259-02] reads “binds”; that for ACKNYWNPCDLIETTCA (three Cys linked to the TBMB (tris(bromomethyl)benzene) scaffold) [06-254-01], “binds”. ACNHWNPWCSVEPPVCA (three Cys linked to the TBMB (tris(bromomethyl)benzene) scaffold) [06-259-01]: the binding result is on record as “binds”. The result for ACNHWNPWCSADPPICA (three Cys linked to the TBMB (tris(bromomethyl)benzene) scaffold) [06-259-03] reads “binds”; that for ACNYWNPWCPWDAPLCA (three Cys linked to the TBMB (tris(bromomethyl)benzene) scaffold) [06-259-04], “binds”; that for ACKNYWNPCDLIPGPCA (three Cys linked to the TBMB (tris(bromomethyl)benzene) scaffold) [06-254-02], “binds”. As to ACKNYWNPCDLVMDTCA (three Cys linked to the TBMB (tris(bromomethyl)benzene) scaffold) [06-254-03], the binding entry is “binds”. The result for ACRNYWNPCTLINITCA (three Cys linked to the TBMB (tris(bromomethyl)benzene) scaffold) [06-255] reads “binds”; that for ACKNYWNPCDLVTISCA (three Cys linked to the TBMB (tris(bromomethyl)benzene) scaffold) [06-254], “binds”; that for ACPYPFRCLHENLCA (three Cys linked to the TBMB (tris(bromomethyl)benzene) scaffold) [06-258], “binds”.
